Consider 2 substances from article PMC8254121.

Sequences of proteins named here, by UniProt entry; tags and fusion partners are left off. A change or cut given only in a name is not applied to a line headed by its entry. Residues count along the entry.
UniProt P06213, residues 28-1382: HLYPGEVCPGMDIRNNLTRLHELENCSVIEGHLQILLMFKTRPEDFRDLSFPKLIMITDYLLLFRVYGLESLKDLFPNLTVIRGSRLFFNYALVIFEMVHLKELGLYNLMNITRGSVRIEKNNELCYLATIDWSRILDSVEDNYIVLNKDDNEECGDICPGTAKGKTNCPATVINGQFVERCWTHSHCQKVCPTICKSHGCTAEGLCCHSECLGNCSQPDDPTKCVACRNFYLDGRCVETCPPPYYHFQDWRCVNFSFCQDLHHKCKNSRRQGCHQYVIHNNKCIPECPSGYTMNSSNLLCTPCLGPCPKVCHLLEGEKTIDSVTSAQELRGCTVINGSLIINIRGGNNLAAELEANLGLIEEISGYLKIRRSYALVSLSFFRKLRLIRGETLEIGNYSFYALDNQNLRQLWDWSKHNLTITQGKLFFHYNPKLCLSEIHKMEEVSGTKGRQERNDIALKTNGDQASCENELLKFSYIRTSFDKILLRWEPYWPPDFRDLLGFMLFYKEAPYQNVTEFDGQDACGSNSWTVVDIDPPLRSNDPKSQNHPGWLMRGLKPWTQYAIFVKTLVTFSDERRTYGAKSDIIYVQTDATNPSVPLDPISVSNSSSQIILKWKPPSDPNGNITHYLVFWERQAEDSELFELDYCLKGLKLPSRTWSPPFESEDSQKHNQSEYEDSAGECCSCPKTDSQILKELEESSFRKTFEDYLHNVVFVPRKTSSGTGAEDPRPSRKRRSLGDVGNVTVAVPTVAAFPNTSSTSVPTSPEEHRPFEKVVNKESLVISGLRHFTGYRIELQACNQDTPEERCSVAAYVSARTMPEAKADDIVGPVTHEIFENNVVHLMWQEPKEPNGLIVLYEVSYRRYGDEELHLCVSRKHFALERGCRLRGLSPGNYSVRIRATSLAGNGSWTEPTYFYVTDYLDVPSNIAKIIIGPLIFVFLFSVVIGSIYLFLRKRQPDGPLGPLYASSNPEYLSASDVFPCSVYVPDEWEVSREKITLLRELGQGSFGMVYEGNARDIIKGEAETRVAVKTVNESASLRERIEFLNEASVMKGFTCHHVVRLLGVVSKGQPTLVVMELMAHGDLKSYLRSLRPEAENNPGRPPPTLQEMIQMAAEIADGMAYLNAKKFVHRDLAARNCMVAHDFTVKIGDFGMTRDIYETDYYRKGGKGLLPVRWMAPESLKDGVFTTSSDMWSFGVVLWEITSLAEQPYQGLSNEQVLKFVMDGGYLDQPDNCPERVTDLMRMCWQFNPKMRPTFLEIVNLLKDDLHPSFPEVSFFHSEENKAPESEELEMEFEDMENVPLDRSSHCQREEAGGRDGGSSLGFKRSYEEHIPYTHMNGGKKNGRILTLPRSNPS
UniProt P56817: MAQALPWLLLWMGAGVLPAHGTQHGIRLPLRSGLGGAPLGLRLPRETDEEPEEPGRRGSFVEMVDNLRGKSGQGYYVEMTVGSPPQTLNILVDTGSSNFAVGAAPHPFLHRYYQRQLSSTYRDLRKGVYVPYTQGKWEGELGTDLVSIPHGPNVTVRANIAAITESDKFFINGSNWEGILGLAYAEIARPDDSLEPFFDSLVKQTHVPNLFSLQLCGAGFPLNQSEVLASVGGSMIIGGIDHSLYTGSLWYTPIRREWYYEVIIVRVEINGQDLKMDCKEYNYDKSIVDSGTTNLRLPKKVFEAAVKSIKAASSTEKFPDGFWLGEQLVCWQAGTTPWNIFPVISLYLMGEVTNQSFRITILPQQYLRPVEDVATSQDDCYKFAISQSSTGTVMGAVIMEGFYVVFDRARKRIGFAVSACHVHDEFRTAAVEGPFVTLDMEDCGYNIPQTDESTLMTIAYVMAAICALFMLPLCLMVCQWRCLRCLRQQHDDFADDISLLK

These are yes or no findings as the source states them, for the method shown. In cells and extracts the contact can be indirect. A result given as binding can be weak or reduced; the word gives no strength.

The target in assay [1] is FLAG-tagged insulin receptor (UniProt P06213). Description: co-IP; immunoprecipitation with anti-tag antibodies (anti-HA or anti-FLAG) from lysates of transfected HEK293 cells; immunoblot with anti-HA, anti-BACE1 prodomain, anti-FLAG or anti-IR antibodies.
Assay [2] concerns the target HA-tagged BACE1 (β-secretase 1) (UniProt P56817). The description is as above.

Consider “HA-tagged BACE1 (β-secretase 1) (from UniProt P56817) (enzyme)”, for which, in assay [1], the binding entry was “binds”.

Turning to “insulin receptor (IR), no tag named (from UniProt P06213 28-1382)”, in assay [2], the binding entry is on record as “binds”.
